Test results as given in PubChem BioAssay AID493014 (National Center for Advancing Translational Sciences (NCATS), 2011).
Some of the results follow. The main result of the screen is listed elsewhere. These columns were measured beside it and carry no call. The list favours compounds with an active or inconclusive main result. Potencies come from curve fits of mixed quality, noted in brackets.

Assay: qHTS Assay to Find Inhibitors of Chronic Active B-Cell Receptor Signaling
Conditions: ABC-DLBCL IkBa-CBG/CBR reporter, luminescence ratio (green luciferase fused to IkBa over red control in TMD8 lymphoma cells), 4 h
In short: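 TMD8 human ABC-DLBCL cells with doxycycline-inducible IκBα–green luciferase fusion and unfused red luciferase, in 0.5% FBS medium; compounds up to 46 uM, 4 h at 37C. Green/red luminescence ratio, filter-overlap corrected, fitted to concentration-response curves.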

[1] = measured here: CBR red luminescence, cell number
[2] = measured here: IkBa-CBG green luminescence

Row | SMILES | AC50 [1] | AC50 [2]
1 | O=C(c1ccccc1)N1CCN(C(=O)C23CC4CC(CC(C4)C2)C3)CC1 | 1.78 µM [falling, partial curve] | 
2 | CS(=O)(=O)c1ccc2nc(NC(=O)CCNC(=O)c3ccc([N+](=O)[O-])cc3)sc2c1 | 7.31 µM [rising, partial curve] | 
3 | CCC(Sc1nc2cc(OC)c(OC)cc2c(=O)n1Cc1ccco1)C(=O)NCCOC (stereo not given) | 5.01 µM [falling, partial curve, poor fit] | 
4 | C=CCOC(=O)CN1C(=O)c2ccccc2C1=O | 2.24 µM [falling, partial curve, poor fit] | 
5 | CN=C1SC(CC(=O)Nc2sc(C)c(C)c2C(=O)OC)C(=O)N1C (stereo not given) | 3.16 µM [rising, single point] | 
6 | CCOC(=O)c1c(C)[nH]c(C)c1C(=O)COC(=O)CNC(=O)c1ccc(OCC)cc1 | 4.61 µM [rising, partial curve, poor fit] | 
7 | CC1(C(=O)NCC2CCCO2)Oc2cccnc2NC1=O (stereo not given) | 0.112 µM [rising, full curve, poor fit] | 
8 | CCOc1ccccc1C1CC(c2cccc(NS(C)(=O)=O)c2)=NN1C(=O)c1ccccc1 (stereo not given) | 20.6 µM [falling, single point] | 
9 | COc1ccc(C(CNC(=O)c2cc3ccccc3cc2OC)N2CCCC2)cc1 (stereo not given) | 32.6 µM [rising, single point] | 
10 | O=C(Nc1ccc(Cl)cc1)c1cccc(S(=O)(=O)Nc2ccccn2)c1 | 0.794 µM [falling, partial curve, poor fit] | 
11 | Cc1ccc2nc(/C(C#N)=N/O)[nH]c2c1 | 2.06 µM [falling, partial curve, poor fit] | 
12 | CCCC(=O)Nc1nnc(-c2ccco2)s1 | 32.6 µM [falling, single point] | 
13 | Nc1ccc(C(=O)c2cccs2)cc1[N+](=O)[O-] | 7.94 µM [rising, partial curve] | 
14 | O=C(Nc1ccc(Cl)cc1)N1CCOCC1 | 0.501 µM [rising, full curve, poor fit] | 
15 | O=C(Nc1ccc(F)cc1)c1cc2ccccc2o1 | 10 µM [falling, partial curve] | 
16 | Cc1cccc(C(=O)O/N=C/c2c(Cl)n(C)c3ccccc23)c1 | 11.6 µM [rising, partial curve] | 
17 | CCCCC[n+]1ccn(C2=C([O-])c3ccccc3C(=O)/C2=N\S(=O)(=O)c2ccccc2)c1 | 0.794 µM [falling, partial curve, poor fit] | 
18 | O=C1CCCc2c1cc(C(=O)Nc1ccc(Br)cn1)c(=O)n2-c1ccccc1 | 0.00517 µM [rising, full curve, poor fit] | 
19 | COc1ccc(/C=C2\SC(=S)N(CCC(=O)Nc3cccc(O)c3)C2=O)cc1 | 2.51 µM [falling, full curve] | 
20 | Cn1c(SCn2nnc3ccccc3c2=O)nc2ccccc2c1=O | 0.631 µM [falling, full curve, poor fit] | 
21 | CCCCCCCN1C(Nc2ccccc2)=NC[C@@H]1CC(C)C | 5.62 µM [falling, partial curve, poor fit] | 

14 entries from above, sorted by SMILES length, smallest number first:
Row | SMILES | AC50 [1] | AC50 [2]
14 | O=C(Nc1ccc(Cl)cc1)N1CCOCC1 | 0.501 µM [rising, full curve, poor fit] | 
11 | Cc1ccc2nc(/C(C#N)=N/O)[nH]c2c1 | 2.06 µM [falling, partial curve, poor fit] | 
7 | CC1(C(=O)NCC2CCCO2)Oc2cccnc2NC1=O (stereo not given) | 0.112 µM [rising, full curve, poor fit] | 
13 | Nc1ccc(C(=O)c2cccs2)cc1[N+](=O)[O-] | 7.94 µM [rising, partial curve] | 
21 | CCCCCCCN1C(Nc2ccccc2)=NC[C@@H]1CC(C)C | 5.62 µM [falling, partial curve, poor fit] | 
16 | Cc1cccc(C(=O)O/N=C/c2c(Cl)n(C)c3ccccc23)c1 | 11.6 µM [rising, partial curve] | 
5 | CN=C1SC(CC(=O)Nc2sc(C)c(C)c2C(=O)OC)C(=O)N1C (stereo not given) | 3.16 µM [rising, single point] | 
9 | COc1ccc(C(CNC(=O)c2cc3ccccc3cc2OC)N2CCCC2)cc1 (stereo not given) | 32.6 µM [rising, single point] | 
18 | O=C1CCCc2c1cc(C(=O)Nc1ccc(Br)cn1)c(=O)n2-c1ccccc1 | 0.00517 µM [rising, full curve, poor fit] | 
19 | COc1ccc(/C=C2\SC(=S)N(CCC(=O)Nc3cccc(O)c3)C2=O)cc1 | 2.51 µM [falling, full curve] | 
8 | CCOc1ccccc1C1CC(c2cccc(NS(C)(=O)=O)c2)=NN1C(=O)c1ccccc1 (stereo not given) | 20.6 µM [falling, single point] | 
6 | CCOC(=O)c1c(C)[nH]c(C)c1C(=O)COC(=O)CNC(=O)c1ccc(OCC)cc1 | 4.61 µM [rising, partial curve, poor fit] | 
2 | CS(=O)(=O)c1ccc2nc(NC(=O)CCNC(=O)c3ccc([N+](=O)[O-])cc3)sc2c1 | 7.31 µM [rising, partial curve] | 
17 | CCCCC[n+]1ccn(C2=C([O-])c3ccccc3C(=O)/C2=N\S(=O)(=O)c2ccccc2)c1 | 0.794 µM [falling, partial curve, poor fit] | 

Continued:

Row | SMILES | AC50 [1] | AC50 [2]
22 | CCOc1cc(N2CCOCC2)c(OCC)cc1NC(=O)c1ccccc1 | 3.98 µM [rising, full curve] | 
23 | COc1ccc(OC)c(C(C)NC(=O)Nc2cccc(C(C)=O)c2)c1 (stereo not given) | 10 µM [rising, partial curve, poor fit] | 
24 | COC(=O)C1CCN(C(=O)c2c(-c3ccccc3Cl)noc2C)CC1 | 29.1 µM [rising, single point] | 
25 | O=C(O)c1ccc(N=Cc2c(O)ccc3oc4c(c23)CCCC4)cc1 | 35.5 µM [rising, partial curve, poor fit] | 
26 | Cc1ccc(C2=CC(c3ccccc3C)n3c(nc4ccccc43)N2)cc1 (stereo not given) | 2 µM [falling, full curve] | 15.8 µM [rising, partial curve, poor fit]
27 | CCOc1ccc(C2=NNC(c3cccs3)=Nc3ccc(OCC)cc32)cc1 | 29.1 µM [rising, single point] | 
28 | CC(C)C1=NN2C(=N)CC(=O)N=C2S1 | 11.2 µM [rising, partial curve] | 
29 | CN(C)CCCNC(=O)C[C@H]1C[C@H](C(=O)N2CCCCC2)[C@@]2(CCc3ccccc3)c3[nH]c4ccc(Cl)cc4c3CCN2C1=O | 29.1 µM [falling, single point] | 
30 | Nc1nc2ccc(C(=O)Nc3ccccc3)cc2s1 | 15.8 µM [falling, single point] | 
31 | CSCCC(NS(=O)(=O)c1ccccc1)C(=O)OC(C)C(=O)Nc1ccc(Cl)cn1 (stereo not given) | 5.17 µM [falling, full curve] | 
32 | COc1ccc(Cc2nnc(SCC(=O)c3c(N)n(C4CC4)c(=O)[nH]c3=O)o2)cc1 | 0.00461 µM [falling, full curve, poor fit] | 
33 | Cc1[nH][nH]c(=O)c1C(c1c(C)[nH][nH]c1=O)c1cn(Cc2ccc(Cl)c(Cl)c2)c2ccccc12 | 20.6 µM [falling, partial curve] | 23.1 µM [falling, single point]
34 | COc1ccc(S(=O)(=O)N(C)CC(=O)Nc2ccccc2C(F)(F)F)cc1 | 0.461 µM [rising, full curve, poor fit] | 
35 | COc1cc(F)c(S(=O)(=O)N2CCOc3ccccc32)cc1OC | 3.98 µM [rising, full curve, poor fit] | 
36 | CCC1CCCCN1S(=O)(=O)c1ccc(C(=O)N(CCCN(C)C)c2nc3cc4c(cc3s2)OCO4)cc1 (stereo not given) | 31.6 µM [falling, single point] | 
37 | CCCCCC(=O)Nc1cccc(C2=NOC3(C2)C[C@H](C(N)=O)N(C(=O)CC)C3)c1 (stereo not given in full) | 17.8 µM [falling, single point] | 
38 | CN(c1ccccc1)S(=O)(=O)c1cccc(NC(=O)Cc2n[nH]c(=O)c3ccccc23)c1 | 20.6 µM [falling, partial curve] | 
39 | O=C(N/N=C\c1ccco1)Nc1cccc(Cl)c1 | 13 µM [falling, partial curve] | 
40 | O=C(Cc1c(O)c2ccccc2[nH]c1=O)NC1CCCCCC1 | 31.6 µM [falling, partial curve, poor fit] | 
41 | CCn1cnc2cc(NCc3ccc(C)cc3)ccc21 | 0.0103 µM [rising, full curve, poor fit] | 
42 | Cc1[nH]nc(-c2ccc(OCc3cnn(-c4ccccc4)c3)cc2O)c1Oc1ccc(Cl)cc1 | 1.3 µM [rising, partial curve, poor fit] | 

Row | SMILES | AC50 [1] | AC50 [2]
43 | O/N=C/c1cc(Cl)ccc1OCc1cccc2ccccc12 | 11.2 µM [rising, partial curve, poor fit] | 
44 | N/C(=N\OC(=O)COc1ccccc1)c1ccccn1 | 10.3 µM [falling, partial curve] | 
45 | COc1ccccc1[C@@H]1C(c2ccccc2)=NN(c2ccc(Br)cc2)[C@H]1C(=O)N1CCOC1=O | 6.51 µM [rising, single point] | 
46 | CN(C)CCN(C(=O)CCc1ccccc1)c1nc2c(F)cc(F)cc2s1 | 35.5 µM [falling, single point] | 
47 | CC/C(=N\NC(=S)NC(C)C)c1ccc(OC(F)F)cc1 |  | 25.1 µM [falling, single point]
48 | Cc1ccc(C(=O)C2=C(O)C(=O)N(c3ncccn3)C2c2ccccc2F)o1 (stereo not given) | 12.6 µM [falling, partial curve, poor fit] | 
49 | Cc1cccc(NC(=S)/N=C(\N)Nc2nc(C)c3ccc(C)cc3n2)c1 | 1.12 µM [falling, full curve] | 
50 | CC(=O)N1CC(=O)N=C1SCC(=O)Nc1nc(-c2ccccc2)c(-c2ccccc2)s1 | 29.1 µM [rising, single point] | 
51 | CC(C)c1ccccc1NC(=O)CNCCc1ccc(C(F)(F)F)cc1 | 22.4 µM [falling, single point] | 
52 | Cn1c(CCNC(=O)C2CCCCC2)nc2cc(NC(=O)c3cccs3)ccc21 | 0.891 µM [falling, full curve, poor fit] | 
53 | O=c1c2ccccc2ncn1CCCOc1ccccc1[N+](=O)[O-] | 3.55 µM [rising, full curve] | 
54 | C=CCNC(=S)N/N=C(\C)c1cccc(OC)c1 | 9.2 µM [rising, partial curve] | 16.4 µM [falling, single point]
55 | O=C(Nc1ccc(Cl)c(Cl)c1)Nc1ccccc1NS(=O)(=O)c1cccs1 | 29.1 µM [falling, single point] | 
56 | COc1ccc(C(=O)/C=C/c2cn(CN3CCN(C)CC3)c3ccccc23)cc1 | 2.59 µM [falling, partial curve, poor fit] | 
57 | O=C(O)c1cccc(-c2ccc(/C=N/Nc3nn[nH]n3)o2)c1 | 7.08 µM [falling, partial curve] | 
58 | COc1ccc(NC(=O)c2sc(NC(=O)COc3ccccc3)nc2C)cc1 | 3.98 µM [falling, full curve] | 
59 | Cc1cc(NS(=O)(=O)c2ccc(NC(=O)Cc3ccc([N+](=O)[O-])cc3)cc2)nc(C)n1 | 32.6 µM [rising, single point] | 
60 | COc1ccc(-c2nc3ccc([N+](=O)[O-])cc3o2)cc1 | 0.116 µM [rising, full curve, poor fit] | 
61 | COc1cccc(S(=O)(=O)NCc2ccc(C(=O)Nc3ccc(Cl)c(Cl)c3)cc2)c1 | 20.6 µM [rising, single point] | 
62 | Cc1nn(C)cc1/C=N\NC(=O)Cc1ccc([N+](=O)[O-])cc1 | 4.11 µM [rising, partial curve, poor fit] | 
